We go through 25 compounds from the supplement of paper PMC8551327.

Each structure is given as a SMILES string. Where a name gives a salt, the structure may show the parent alone. The list shows a part of the results. Rule as the data show it: active = 1.25 or more and inactive = the rest. Repeats are few or missing, and single values can be far off.

This assay has as its system Kcc2-LUC knock-in mouse primary cortical neurons (Kcc2 promoter reporter). The assay can be described thus: Kcc2 promoter-driven luciferase activity relative to vehicle control (fold of vehicle (ratio)); higher = stronger Kcc2 promoter activation (Kcc2 expression enhancer). Conditions: 100 nM; 48 h.
For `[Mo]` [hexapotassium], the “Kcc2 promoter-driven luciferase activity” value is inactive: 1.
In the case of `Oc1cc(-n2cccn2)c(O)cc1-n1cccn1` [2,5-Di(pyrazol-1-yl)benzene-1,4-diol] it was inactive: 0.2; in that of `Oc1[nH]c2ccccc2c1N=Nc1nc(-c2ccc(Br)cc2)cs1`, inactive: 0.85; in that of `O=[N+]([O-])c1cccc2c(N=Nc3ccc4ccccc4c3O)c(O)cc(S(=O)(=O)O)c12`, inactive: 0.79.
In the case of `Cc1c2ccc3ccccc3c2c[n+]2ccccc12` [7-methylnaphtho[2,1-b]quinolizin-12-ium;chloride] it was inactive: 0.5; in that of `CC1(Cl)CC2OC3(Br)C=CC(C)(O)C2(CC1Br)C3(C)C` (stereo not given) [Pacifenol], inactive: 1.12; in that of `CC(C)C(=O)OCN(C)c1nc(N(C)COC(=O)C(C)C)nc(N(C)COC(=O)C(C)C)n1` [N2,N6-Triisobutyryloxymthyl-N2,N4,N6-trimethylmelamine], inactive: 0.87.
As for `Cc1ccc(/C=C2\CNC/C(=C\c3ccc(C)cc3)C2=O)cc1`, the “Kcc2 promoter-driven luciferase activity” value is inactive: 1.17.
As to `CC(=O)c1sc2[n+](c1C)C(=O)/C(=C\c1ccccc1Cl)S2`, the “Kcc2 promoter-driven luciferase activity” value is inactive: 1.04.
As to `CO[C@@H]1C[C@](C)(O)Cc2cc3c(c(O)c21)C(=O)c1c(O)cc2c(c1C3=O)O[C@@H]1O[C@@]2(C)[C@H](O)[C@@H](N(C)C)[C@@H]1O` [Menogaril], the “Kcc2 promoter-driven luciferase activity” value was inactive: 1.18.
For `COc1cc([C@@H]2c3cc4c(cc3[C@H](O[C@@H]3O[C@@H]5COC(c6ccccc6)O[C@H]5[C@H](O)[C@H]3O)[C@H]3COC(=O)[C@H]23)OCO4)cc(OC)c1OC` (stereo not given in full) [Proresidor], the “Kcc2 promoter-driven luciferase activity” value was active: 1.29.
As to `CC1(c2cccc3ccccc23)OC(=O)c2ccccc21` (stereo not given) [3-Methyl-3-(1-naphthyl)-2-benzofuran-1(3H)-one], the “Kcc2 promoter-driven luciferase activity” value was inactive: 0.56.
As to `COc1ccc(/C=C/c2cc(OC)c(OC)c(OC)c2)cc1OP(=O)(O)O`, the “Kcc2 promoter-driven luciferase activity” value was inactive: 0.591.
Then `CN(C)[C@@H]1C(=O)C(C(N)=O)=C(O)[C@@]2(O)C(=O)C3=C(O)c4c(O)cccc4C[C@H]3C[C@@H]12` [Sancycline hydrochloride; Bonomycin;], with inactive: 0.49; and `CN(C)CCCN1c2ccccc2CCc2ccccc21` [Imipramine], with inactive: 0.43.
For the compound `Nc1nc(N)c(N=Nc2ccccc2)c(=O)[nH]1` [2,6-Diamino-5-(phenylazo)-4-pyrimidinol], the “Kcc2 promoter-driven luciferase activity” value was active: 1.26.
In the case of `COc1ccc2c(c1)C=C([N+](=O)[O-])C(C1OC(C)(C)OC1C1COC(C)(C)O1)O2` (stereo not given) it was inactive: 1.16; in that of `[N-]=[N+]=Nc1ccc2c(c1)Sc1ccccc1N2CCCCN1CCN(Cc2ccc(C(=O)c3ccccc3)cc2)CC1` [bismaleate salt], inactive: 1.18; in that of `NC1N=C(c2ccc(Cl)cc2)C2=C(N1)c1ccccc1CC2` (stereo not given), inactive: 1.13.
Take `Cc1cc(NCCCCCCCNc2cc(C)nc3cc(N)ccc23)c2ccc(N)cc2n1`: the “Kcc2 promoter-driven luciferase activity” value is inactive: 1.
`CC1=C(C(=O)NCc2ccccc2)C(c2ccccc2O)C(C(=O)NCc2ccccc2)=C(C)N1`: the “Kcc2 promoter-driven luciferase activity” value is active: 1.4.
Regarding `CC1(C)[C@@H]2CC[C@]1(C)[C@@H](O)C2` [Isoborneol], the “Kcc2 promoter-driven luciferase activity” value was active: 1.47.
Take `O=C1C=Cc2ncccc2C1=O` [5,6-Quinolinedione]: the “Kcc2 promoter-driven luciferase activity” value was active: 1.26.
Turning to `CNC1C(OC2C(OC3C(O)C(O)C(N=C(N)N)C(O)C3N=C(N)N)OC(C)C2(O)/C=N/NC(N)=S)OC(CO)C(O)C1O` (stereo not given), the “Kcc2 promoter-driven luciferase activity” value is inactive: 0.79.
Then `O=C(O)c1ccccc1-c1ccccc1C(=O)Nc1ccc2c(c1)Cc1ccccc1-2` [2-[2-(9H-fluoren-2-ylcarbamoyl)phenyl]benzoic acid], with inactive: 0.5.
